Assay results taken from patent US10744181B2, “Glycopeptide derivatives for use in the treatment and/or prevention and/or attenuation of fibrosis diseases” (TFCHEM, priority 2017, dated 2020).

Legend:
Assay type in all cases: cell-based
COL1A1 = assay: RT-qPCR mRNA expression of COL1A1 in normal human dermal fibroblasts; conditions: 94 mM, 24 hours, PCR n=2
COL3A1 = assay: RT-qPCR mRNA expression of COL3A1 in normal human dermal fibroblasts; conditions: 94 mM, 24 hours, PCR n=2
COL8A1 = assay: RT-qPCR mRNA expression of COL8A1 in normal human dermal fibroblasts; conditions: 94 mM, 24 hours, PCR n=2
DCN = assay: RT-qPCR mRNA expression of DCN in normal human dermal fibroblasts; conditions: 94 mM, 24 hours, PCR n=2
DPT = assay: RT-qPCR mRNA expression of DPT in normal human dermal fibroblasts; conditions: 94 mM, 24 hours, PCR n=2
ELN [1] = assay: RT-qPCR mRNA expression of ELN in normal human dermal fibroblasts; conditions: 94 mM, 24 hours, PCR n=2
FBLN5 = assay: RT-qPCR mRNA expression of FBLN5 in normal human dermal fibroblasts; conditions: 94 mM, 24 hours, PCR n=2
PCOLCE = assay: RT-qPCR mRNA expression of PCOLCE in normal human dermal fibroblasts; conditions: 94 mM, 24 hours, PCR n=2
MMP3 = assay: RT-qPCR mRNA expression of MMP3 in normal human dermal fibroblasts; conditions: 94 mM, 24 hours, PCR n=2
TFPI2 = assay: RT-qPCR mRNA expression of TFPI2 in normal human dermal fibroblasts; conditions: 94 mM, 24 hours, PCR n=2
LEPR = assay: RT-qPCR mRNA expression of LEPR in normal human dermal fibroblasts; conditions: 94 mM, 24 hours, PCR n=2
TGFBR2 = assay: RT-qPCR mRNA expression of TGFBR2 in normal human dermal fibroblasts; conditions: 94 mM, 24 hours, PCR n=2
ACTA2 = assay: RT-qPCR mRNA expression of ACTA2 in normal human dermal fibroblasts; conditions: 94 mM, 24 hours, PCR n=2
MMP1 = assay: RT-qPCR mRNA expression of MMP1 in aged human dermal fibroblasts; conditions: 34 mM, 24 hours, aged human dermal fibroblasts (17th passage); PCR n=2
ELN [2] = assay: RT-qPCR mRNA expression of ELN in aged human dermal fibroblasts; conditions: 34 mM, 24 hours, aged human dermal fibroblasts (17th passage); PCR n=2

Structure (SMILES) | COL1A1 Cycles (COL1A1) | COL3A1 Cycles (COL3A1) | COL8A1 Cycles (COL8A1) | DCN Cycles (DCN) | DPT Cycles (DPT) | ELN Cycles (ELN [1]) | FBLN5 Cycles (FBLN5) | PCOLCE Cycles (PCOLCE) | MMP3 Cycles (MMP3) | TFPI2 Cycles (TFPI2) | LEPR Cycles (LEPR) | TGFBR2 Cycles (TGFBR2) | ACTA2 Cycles (ACTA2) | MMP1 Cycles (MMP1) | ELN Cycles (ELN [2])
C[C@H](NC(=O)[C@H](C)NC(=O)[C@@H](N)CCCCNCC(F)(F)[C@]1(O)O[C@H](CO)[C@H](O)[C@H](O)[C@H]1O)C(=O)O [Compound 1] | 17.13 and 17.03 | 22.87 and 22.72 | 24.57 and 24.51 | 19.94 and 19.89 | 24.18 and 24.14 | 27.17 and 27.16 | 24.21 and 24.06 | 22.02 and 22.04 | 20.88 and 20.97 | 26.14 and 26.01 | 29.16 and 29.64 | 27.51 and 27.26 | 26.87 and 26.76 | 17.53 and 17.60 | 
C[C@H](NC(=O)[C@@H](N)CCCCNCC(F)(F)[C@]1(O)O[C@H](CO)[C@H](O)[C@H](O)[C@H]1O)C(=O)O [Compound 3] |  |  |  |  |  |  |  |  |  |  |  |  |  | 18.93 and 18.81 | 28.99 and 29.28
N[C@@H](CCCCNCC(F)(F)[C@]1(O)O[C@H](CO)[C@H](O)[C@H](O)[C@H]1O)C(=O)O [Compound 4] |  |  |  |  |  |  |  |  |  |  |  |  |  | 18.33 and 18.35 | 29.72 and 30.04

Where “and” joins values, the source holds several entries; their conditions need not be identical. Equal entries are not always repeated.
